At least one compound was matched to its structure with a doubt left. Some entries share one result that the patent states for a list of compounds.
Experiments:
colon 5-HT = assay: Colon 5-HT by ELISA, normalized to total protein; assay type: in vivo, mouse; settings: GF mice, single rectal injection
Text: Blood samples were collected by cardiac puncture and spun through SST vacutainers (Becton Dickinson) for serum separation or PST lithium hepararin vacutainers (Becton Dickinson, Franklin Lakes, NJ) for plasma separation. The entire length of the colon or 1 cm regions of the distal, medial and proximal colon of the small intestine were washed in PBS, flushed with PBS to remove luminal contents, and sonicated on ice in 10 s intervals at 20 mV in ELISA standard buffer supplemented with ascorbic acid (Eagle Biosciences, Nashua, NH). Serotonin levels were detected in sera and supernatant of tissue homogenates by ELISA according to the manufacturer's instructions (Eagle Biosciences, Nashua, NH). Readings from tissue samples were normalized to total protein content as detected by BCA assay (Thermo Pierce). Data compiled across multiple experiments are expressed as 5-HT concentrations normalized to SPF controls within each experiment.

RIN14B cells = assay: RIN14B in vitro culture, 5-HT release; settings: α-tocopherol 8 uM, butyrate 100 uM, cholate 75 uM, deoxycholate 25 uM, p-aminobenzoate 1 uM, propionate 100 uM, tyramine 100 uM

Compound | time of peak of colon 5-HT after injection (colon 5-HT) [h] | 5-HT in RIN14B chromaffin cell cultures (RIN14B cells)
deoxycholate | ≤ 1 | 
Cc1c(C)c2c(c(C)c1O)CC[C@@](C)(CCC[C@H](C)CCC[C@H](C)CCCC(C)C)O2 [α-tocopherol] | ≤ 1 | 
CCCC(=O)O [butyrate] |  | elevate 5-HT
